# Data published in US20130252950A1, “TARGETING MTOR SUBSTRATES IN TREATING PROLIFERATIVE DISEASES” (President and Fellows of Harvard College, priority 2010, published 2013).
# Protein sequences, listed by entry. Tags and fused reporters are not part of them.
# UniProt Q8N122: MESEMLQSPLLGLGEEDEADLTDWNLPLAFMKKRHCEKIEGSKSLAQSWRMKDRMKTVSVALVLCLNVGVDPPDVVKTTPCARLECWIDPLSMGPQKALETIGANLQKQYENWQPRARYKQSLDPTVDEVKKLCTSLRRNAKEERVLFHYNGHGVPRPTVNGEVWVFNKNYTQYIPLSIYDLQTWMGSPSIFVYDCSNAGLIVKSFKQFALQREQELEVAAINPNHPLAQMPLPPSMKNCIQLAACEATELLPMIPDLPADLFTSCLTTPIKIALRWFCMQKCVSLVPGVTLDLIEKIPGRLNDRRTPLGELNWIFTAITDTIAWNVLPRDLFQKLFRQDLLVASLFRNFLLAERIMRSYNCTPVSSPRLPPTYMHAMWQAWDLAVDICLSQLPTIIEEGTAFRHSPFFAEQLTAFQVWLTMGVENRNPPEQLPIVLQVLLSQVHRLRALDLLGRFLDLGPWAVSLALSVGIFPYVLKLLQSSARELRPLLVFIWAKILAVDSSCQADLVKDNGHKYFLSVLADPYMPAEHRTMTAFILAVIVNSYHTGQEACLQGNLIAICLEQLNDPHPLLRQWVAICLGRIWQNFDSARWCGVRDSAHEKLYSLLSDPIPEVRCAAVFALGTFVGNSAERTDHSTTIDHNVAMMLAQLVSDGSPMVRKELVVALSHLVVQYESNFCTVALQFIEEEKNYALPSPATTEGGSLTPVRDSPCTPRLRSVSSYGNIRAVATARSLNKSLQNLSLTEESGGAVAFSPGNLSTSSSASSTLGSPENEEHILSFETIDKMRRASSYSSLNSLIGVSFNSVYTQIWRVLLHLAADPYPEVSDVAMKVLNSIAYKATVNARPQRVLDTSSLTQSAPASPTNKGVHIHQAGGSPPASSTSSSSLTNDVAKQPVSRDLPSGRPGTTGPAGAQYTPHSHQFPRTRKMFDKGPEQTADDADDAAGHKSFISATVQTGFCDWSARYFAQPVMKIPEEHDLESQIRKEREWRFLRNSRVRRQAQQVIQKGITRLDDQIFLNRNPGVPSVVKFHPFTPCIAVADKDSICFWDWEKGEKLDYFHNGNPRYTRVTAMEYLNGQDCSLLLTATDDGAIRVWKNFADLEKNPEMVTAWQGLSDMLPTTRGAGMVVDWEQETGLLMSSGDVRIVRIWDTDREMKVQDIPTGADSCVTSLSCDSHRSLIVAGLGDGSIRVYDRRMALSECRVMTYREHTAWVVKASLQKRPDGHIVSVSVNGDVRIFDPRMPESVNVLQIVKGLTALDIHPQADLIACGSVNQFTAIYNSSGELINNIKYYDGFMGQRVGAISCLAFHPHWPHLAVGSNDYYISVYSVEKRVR
# Results are given in words; binding and its absence hold for the method and conditions named. In cells and extracts the contact can be indirect. Some results given as binding are weak or reduced against the parent protein; the word gives no strength. Sequences can lack the tags named with a protein.
# B1: HA-tagged Grb10 (human growth factor receptor-bound protein 10, wild type) (other, UniProt Q13322-3 1-536, looked up)
# chain: MNASLESLYSACSMQSDTVPLLQNGQHARSQPRASGPPRSIQPQVSPRQRVQRSQPVHILAVRRLQEEDQQFRTSSLPAIPNPFPELCGPGSPPVLTPGSLPPSQAAAKQDVKVFSEDGTSKVVEILADMTARDLCQLLVYKSHCVDDNSWTLVEHHPHLGLERCLEDHELVVQVESTMASESKFLFRKNYAKYEFFKNPMNFFPEQMVTWCQQSNGSQTQLLQNFLNSSSCPEIQGFLHVKELGKKSWKKLYVCLRRSGLYCSTKGTSKEPRHLQLLADLEDSNIFSLIAGRKQYNAPTDHGLCIKPNKVRNETKELRLLCAEDEQTRTCWMTAFRLLKYGMLLYQNYRIPQQRKALLSPFSTPVRSVSENSLVAMDFSGQTGRVIENPAEAQSAALEEGHAWRKRSTRMNILGSQSPLHPSTLSTVIHRTQHWFHGRISREESHRIIKQQGLVDGLFLLRDSQSNPKAFVLTLCHHQKIKNFQILPCEDDGQTFFSLDDGNTKFSDLIQLVDFYQLNKGVLPCKLKHHCIRVAL
# notes: Expressed by transfection in HEK293T cells; The phospho-specific antibody recognises it in the form phosphorylated at S501/S503 (mouse isoform 1 numbering) in cells; also called WT-Grb10; Grb10 WT; not shown: HA tag from vector pKH3
# Biological target: Myc-tagged raptor (pRK5-Myc-raptor) (UniProt Q8N122)
# Test: co-immunoprecipitation with anti-HA beads from co-transfected HEK293T cells, anti-Myc blot
binder,measurement,value
B1,binding,binds
